Test results published in paper PMC11087952, “Biochemical characterization of Escherichia coli DnaC variants that alter DnaB helicase loading onto DNA” (The Journal of Biological Chemistry, 2024).
Construct, isoform or probe ends are uncertain for at least one entry. For some assays here: The comparison behind a weaker result is the experiment's own reference, which may not be listed here. For some assays here: Protein sequences can lack the tags named with them.

How the values were obtained:
[1] = target: DnaC 824 N255Y (Escherichia coli) (UniProt P0AEF0); assay: fluorescence anisotropy; conditions: 5 mM Mg2+, 2 mM ATP, similar to wild-type; 50 mM HEPES-KOH pH 7.5, 125 mM KCl, 10% glycerol, 5 mM MgCl2, 2 mM ATP, 2 mM DTT, 0.1 mg/ml BSA, 10 nM DNA, 0-50 uM DnaC; 37 C 15 min, read at 25 C; recombinant protein; single-stranded DNA
[2] = target: T1, DnaC 811 I184F (Escherichia coli) (UniProt P0AEF0); assay: fluorescence anisotropy; conditions: 5 mM Mg2+, 2 mM ATP, slightly weakened vs wild-type; 50 mM HEPES-KOH pH 7.5, 125 mM KCl, 10% glycerol, 5 mM MgCl2, 2 mM ATP, 2 mM DTT, 0.1 mg/ml BSA, 10 nM DNA, 0-50 uM DnaC; 37 C 15 min, read at 25 C; recombinant protein; single-stranded DNA
T1 sequence (looked up, limits assumed): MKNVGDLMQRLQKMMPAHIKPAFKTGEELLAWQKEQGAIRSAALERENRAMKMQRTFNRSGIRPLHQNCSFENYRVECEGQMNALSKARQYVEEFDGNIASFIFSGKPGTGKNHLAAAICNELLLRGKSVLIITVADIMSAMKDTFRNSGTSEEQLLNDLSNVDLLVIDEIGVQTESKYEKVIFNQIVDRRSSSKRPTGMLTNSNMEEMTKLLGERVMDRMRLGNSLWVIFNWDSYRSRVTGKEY

Question: Does TTTTTTTTTTTTTTTTTTTT [dT20] bind [1]?
Answer: binds

Question: Does TTTTTTTTTTTTTTTTTTTT [dT20] bind [2]?
Answer: binds more weakly
